{"source": "patent US9056108B2", "about": "“Method of treating atrial fibrillation” (Gilead Sciences, Inc., priority 2009, dated 2015)", "key": {"[1]": {"system": "ACh-mediated persistent AF in isolated canine coronary-perfused right atria", "experiment": "Acetylcholine (ACh)-mediated persistent AF model in coronary-perfused right atria", "conditions": "in presence of ACh 1 μM; ranolazine 5 μM, dronedarone 10 μM", "procedure": "To assess the anti-AF potential of ranolazine, dronedarone, and their combination, we used an acetylcholine (ACh, 1.0 μM)-mediated AF model. In the presence of ACh, premature electrical stimulation (PES) or rapid pacing (CL=50-80 ms) induces persistent AF in 100% of canine coronary-perfused right atrial preparations.^9 The effect of the drugs was assessed to prevent (series 1) the induction of AF. In a separate set of preparations, the ability of these agents was evaluated to terminate (series 2) persistent AF. In the first series, ACh was added to the perfusate 20-30 min after the start of perfusion with 5 μM ranolazine, 10 μM dronedarone, or the combination of these agents. This was followed by attempts to induce the arrhythmia electrically. In the second series, the agents were added to the perfusate during ACh-mediated persistent AF (on the 5-6th minutes after the start of the arrhythmia). In cases in which the drug terminated AF, we attempted to re-induce the arrhythmia with rapid pacing."}, "[2]": {"system": "rabbit isolated heart treated with acetylcholine", "experiment": "Electrically-induced atrial fibrillation in rabbit isolated heart treated with acetylcholine", "conditions": "S1S2 protocol, acetylcholine 0.6-1 μM; ranolazine 6 μM in presence of 0.3 μM dronedarone", "procedure": "Each rabbit was sedated using intramuscular injections of 6 mg/kg xylazine and 40 mg/kg ketamine and then anesthetized using a “cocktail” of ketamine (15 mg/kg)+xylazine (4 mg/kg) in 1.5 ml saline. The ketamine/xylazine cocktail was administered as an i.v. bolus via the marginal ear vein. After anesthesia was confirmed, the thorax was opened and the heart was quickly excised. The heart was placed in a modified Krebs-Henseleit (K-H) physiological saline solution at room temperature. The K-H solution contained (in mmol/L): NaCl 118, KCl 2.8, KH2PO4 1.2, CaCl2 2.5, MgSO4 0.5, pyruvate 2.0, glucose 5.5, Na2EDTA 0.57 and NaHCO3 25. The solution was continuously gassed with 95% O2 and 5% CO2, and its pH was adjusted to 7.4. The aorta was rapidly catheterized and the heart was perfused by the method of Langendorff with K-H solution warmed to 36-36.5° C. at a rate of 20 mL/min with a roller pump (Gilson Minipuls3, Middleton, Wis.). CPP was measured (with a Biopac MP 150 pressure transducer, Goleta, Calif.) from a side port of the aortic catheter. To facilitate exit of fluid from the chamber of the left ventricle (LV), the leaflets of the mitral valve were trimmed with fine spring-handled scissors. The right atrial wall was partially removed.\nPremature programmed atrial electrical stimulation (i.e., an S1S2 protocol) caused non-sustained atrial fibrillation (AF) in 12 out of 12 (100%) hearts exposed to acetylcholine (0.6-1 μM) (FIGS. 21, 22). […] Dronedarone (0.3 μM) alone abolished the inducible AF only in 1 out of 5 hearts (FIG. 21, right panel)."}}, "note": "At least one compound was matched to its structure with a doubt left.", "data": [{"smiles": "CC(=O)OCC[N+](C)(C)C", "note": "[ACh, Acetylcholine]", "values": [{"measurement": "Induction of Persistent AF (atria with AF/atria tested)", "setting": "[1]", "result": "(10/10)"}, {"measurement": "Inducibility of AF (hearts)", "setting": "[2]", "result": "12 out of 12"}]}]}
